According to PMC12493168:
No constants are given. Whether binding was seen depends on the method and setting. Binding seen in cells or lysates may run through a third protein. Some entries that bind do so weakly or less than the wild type.

Molecular target: T1, nuclear factor erythroid 2-related factor 2 (mouse (endogenous in primary adipocytes from mouse eWAT SVF)) (UniProt Q60795)
T1 sequence: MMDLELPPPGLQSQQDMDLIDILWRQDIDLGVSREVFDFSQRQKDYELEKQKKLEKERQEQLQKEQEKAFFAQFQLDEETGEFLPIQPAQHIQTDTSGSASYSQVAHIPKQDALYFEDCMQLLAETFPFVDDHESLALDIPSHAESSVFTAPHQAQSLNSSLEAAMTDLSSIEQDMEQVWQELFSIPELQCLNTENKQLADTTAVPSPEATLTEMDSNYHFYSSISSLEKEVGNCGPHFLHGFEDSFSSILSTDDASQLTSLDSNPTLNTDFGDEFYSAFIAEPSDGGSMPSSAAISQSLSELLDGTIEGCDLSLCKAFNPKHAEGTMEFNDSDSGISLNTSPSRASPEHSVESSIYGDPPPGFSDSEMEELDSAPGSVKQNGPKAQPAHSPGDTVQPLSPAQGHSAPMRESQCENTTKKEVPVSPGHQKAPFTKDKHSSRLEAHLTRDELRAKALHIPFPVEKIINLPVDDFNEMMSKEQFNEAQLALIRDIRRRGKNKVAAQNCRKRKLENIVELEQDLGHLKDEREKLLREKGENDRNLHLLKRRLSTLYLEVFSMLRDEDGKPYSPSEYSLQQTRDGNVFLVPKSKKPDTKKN
Experiment: co-IP; lysate of mature adipocytes derived from WT and Serpina3c KO eWAT SVF; at least 1 mg total protein lysate, 2 µg primary antibody overnight at 4 °C, Protein A and Protein G agarose 3 h at 4 °C, washed three times, immunoblotting

- binding: binds
B1: Serpina3c (protein, UniProt P29621 23-417)
chain: DGTLERDTLFHKDKENGTQLDSLTLASINTDFAFSLYKKLALKNPDTNIVFSPLSISAALAIVSLGAKGNTLEEILEGLNFNLTETPEADIHQGFGHLLQRLSHPGEQVQISTGSALFVEKHLQILAEFQEKARALYQAEAFTADFQQPLEATKLINDYVSNQTQRKIKGLISDLDTDTLMVLVNYIYFKGKWKMPFNPRDTFESEFYLDVKRSVKVPMMKIKTLTTPYFRDEELSCTVVELKYKGNASALFILPDQGRMQQVEASLQPETLRKWKNSLRPRKMGELYLPKFSISTDYSLKNILPELGIKEIFSKQADLSGITGTKDLIVSQMVHKAVLDVAETGTEGVAATGVNFRILSRRTSLWFNRTFLMVISHTDVQTTLFIAKITHPKRA
